Experimental data published in article PMC2422854.
Results are given in words; binding and its absence hold for the method and conditions named. Some binding calls cover weakened binding; strength is not graded here. Sequences can lack the tags named with a protein.

What was measured:
[1] = molecular target: T1, TTG1–YFP fused to the GAL4 DNA-binding domain (Arabidopsis thaliana) (UniProt Q9XGN1); experiment: two-hybrid; yeast two-hybrid; GL3 fused to the GAL4 activation domain (pACT), TTG1 and TTG1–YFP fused to the GAL4 DNA-binding domain (pAS); no self-activation; unpublished data
T1 sequence: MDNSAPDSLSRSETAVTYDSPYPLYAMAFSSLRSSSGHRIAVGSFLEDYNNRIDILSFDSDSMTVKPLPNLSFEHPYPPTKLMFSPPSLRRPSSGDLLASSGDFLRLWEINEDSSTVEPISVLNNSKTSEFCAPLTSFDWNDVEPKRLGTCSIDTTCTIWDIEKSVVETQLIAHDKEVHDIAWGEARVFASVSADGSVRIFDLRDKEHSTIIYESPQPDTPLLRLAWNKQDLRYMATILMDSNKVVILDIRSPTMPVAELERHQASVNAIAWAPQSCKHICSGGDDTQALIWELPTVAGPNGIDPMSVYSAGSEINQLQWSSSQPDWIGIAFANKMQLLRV

[2] = molecular target: T2, … TESTA GLABRA1 (TTG1) fused to the GAL4 DNA-binding domain (Arabidopsis thaliana) (UniProt Q9XGN1); experiment: as above
T2 sequence: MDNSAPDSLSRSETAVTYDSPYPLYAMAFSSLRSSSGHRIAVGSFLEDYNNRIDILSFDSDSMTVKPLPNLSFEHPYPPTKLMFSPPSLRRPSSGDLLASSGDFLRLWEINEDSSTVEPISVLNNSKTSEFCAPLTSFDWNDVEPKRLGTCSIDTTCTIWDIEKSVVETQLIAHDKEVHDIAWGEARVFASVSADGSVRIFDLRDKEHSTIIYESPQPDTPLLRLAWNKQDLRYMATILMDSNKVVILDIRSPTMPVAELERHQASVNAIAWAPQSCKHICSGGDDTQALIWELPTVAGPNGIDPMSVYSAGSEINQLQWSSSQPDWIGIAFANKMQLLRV

B1: GLABRA3 (GL3) fused to the GAL4 activation domain (protein, UniProt Q9FN69 1-637)
chain: MATGQNRTTVPENLKKHLAVSVRNIQWSYGIFWSVSASQSGVLEWGDGYYNGDIKTRKTIQASEIKADQLGLRRSEQLSELYESLSVAESSSSGVAAGSQVTRRASAAALSPEDLADTEWYYLVCMSFVFNIGEGMPGRTFANGEPIWLCNAHTADSKVFSRSLLAKSAAVKTVVCFPFLGGVVEIGTTEHITEDMNVIQCVKTSFLEAPDPYATILPARSDYHIDNVLDPQQILGDEIYAPMFSTEPFPTASPSRTTNGFDQEHEQVADDHDSFMTERITGGASQVQSWQLMDDELSNCVHQSLNSSDCVSQTFVEGAAGRVAYGARKSRVQRLGQIQEQQRNVKTLSFDPRNDDVHYQSVISTIFKTNHQLILGPQFRNCDKQSSFTRWKKSSSSSSGTATVTAPSQGMLKKIIFDVPRVHQKEKLMLDSPEARDETGNHAVLEKKRREKLNERFMTLRKIIPSINKIDKVSILDDTIEYLQELERRVQELESCRESTDTETRGTMTMKRKKPCDAGERTSANCANNETGNGKKVSVNNVGEAEPADTGFTGLTDNLRIGSFGNEVVIELRCAWREGVLLEIMDVISDLHLDSHSVQSSTGDGLLCLTVNCKHKGSKIATPGMIKEALQRVAWIC
For B1, the binding [1] was “binds” and the binding [2] was “binds”.
